Data published in PMC8126888 (RSC Medicinal Chemistry, 2020).

System: primary peritoneal mouse macrophages (PMM)
[1] = selectivity index PMM vs L. infantum

| Structure (SMILES) | SI (vs PMM) (PMM IC50 vs L. infantum IC50) | SI (vs PMM) [1] |
| --- | --- | --- |
| CCOC(=O)c1c(C)[nH]c(C(=O)NNC(=O)c2cccc(S(=O)(=O)N(CC)CC)c2)c1C [Compound Z30581529] | 1 |  |
| COc1ccc(Cl)cc1S(=O)(=O)N(Cc1ccccc1)CC(O)c1ccc(F)cc1 (stereo not shown) [DNDI0003389316] |  | 5 |
| O=S(=O)(c1cc(F)ccc1F)N(Cc1ccccc1)C(CO)c1ccc(F)cc1 (stereo not shown) [DNDI0003378486] |  | 2 |
| COc1ccc(C(=O)NC2COC2)cc1S(=O)(=O)N(Cc1ccc(F)cc1)Cc1ccc(F)cc1 [DNDI0003371174] |  | 81 |
| COc1ccc(C)cc1S(=O)(=O)N(CC(N)=O)Cc1ccccc1 [DNDI0003363397] | 1 |  |
| CC1CCc2ccccc2N1CC(=O)Nc1ccc(Cl)c(S(=O)(=O)N(C)C)c1 (stereo not shown) [Compound Z46500410] | 1 |  |
| COc1ccc(OC)c(S(=O)(=O)N(Cc2ccc(F)cc2)Cc2ccc(C#N)cc2)c1 [DNDI0003388088] |  | 3 |
| COc1ccc(C)cc1S(=O)(=O)N(CC(=O)Nc1ccccc1)Cc1ccccc1 [DNDI0003363395] | 1 |  |
| O=S1(=O)c2ccccc2[C@H](O)[C@H](Cc2ccccc2)N1Cc1ccccc1 [DNDI0003578379] |  | 5 |
| CCCCOc1ccc(C(=O)N2CCOCC2)cc1S(=O)(=O)NCc1ccccc1 [DNDI0003407874] |  | 1 |
| O=S(=O)(c1cccnc1N1CCOCC1)N(Cc1ccc(F)cc1)Cc1ccc(F)cc1 [DNDI0003389119] |  | 23 |
| O=S1(=O)c2ccccc2[C@H](O)[C@@H](Cc2ccccc2)N1Cc1ccccc1 [DNDI0003578378] |  | 7 |
| O=S(=O)(c1cc(N2CCOCC2)ccc1OC(F)F)N(Cc1ccc(F)cc1)Cc1ccc(F)cc1 [DNDI0003389647] |  | 91 |
| COc1ccc(CN(Cc2ccc(F)cc2)S(=O)(=O)c2cc(OC)ccc2OC)cc1 [DNDI0003388087] |  | 6 |
| COc1ccc(S(N)(=O)=O)cc1S(=O)(=O)N(Cc1ccccc1)Cc1ccccc1 [DNDI0003578385] |  | 113 |
| CCCCNS(=O)(=O)c1cccc(NC(=O)c2cc(C)c(C)s2)c1 [Compound Z88584860] | 1 |  |
| COc1ccc(-c2nc(C)no2)cc1S(=O)(=O)N(Cc1ccc(F)cc1)Cc1ccc(F)cc1 [DNDI0003388085] |  | 11 |
| COc1ccc(S(=O)(=O)N2CCOCC2)cc1C(=O)N(Cc1ccc(F)cc1)Cc1ccc(F)cc1 [DNDI0003389643] |  | 4 |
| N#Cc1ccccc1S(=O)(=O)N(Cc1ccccc1)Cc1ccccc1 [DNDI0003389641] |  | 6 |
| COc1ccc(Cl)cc1S(=O)(=O)N(Cc1ccccc1)C1COC(=O)OC1 [DNDI0003392146] |  | 4 |
| O=S1(=O)NCNc2cc(Cl)c(S(=O)(=O)N(Cc3ccccc3)Cc3ccccc3)cc21 [DNDI0003425512] |  | 25 |
| COc1ccc(CN(Cc2ccc(F)cc2)S(=O)(=O)c2cc(F)ccc2F)cc1 [DNDI0003388150] |  | 1 |
| Nc1cc(Cl)c(S(N)(=O)=O)cc1S(=O)(=O)N(Cc1ccccc1)Cc1ccccc1 [DNDI0003392145] |  | 1 |
| COc1cc2c(cc1S(=O)(=O)N(Cc1ccccc1)Cc1ccccc1)S(=O)(=O)NCN2 [DNDI0003425513] |  | 25 |

| Structure (SMILES) | SI (vs PMM) (PMM IC50 vs L. infantum IC50) | SI (vs PMM) [1] |
| --- | --- | --- |
| COc1ccc(OC)c(S(=O)(=O)n2cc(C)nc2-c2ccccc2)c1 [DNDI0003363402] | 1 |  |
| COCCN(Cc1ccccc1)S(=O)(=O)c1c(OC)ccc(Cl)c1S(C)(=O)=O [DNDI0003578381] |  | 1 |
| COc1ccc(C(=O)N2CCOCC2)cc1S(=O)(=O)N(Cc1ccc(F)cc1)Cc1ccccc1Cl [DNDI0003389128] |  | 46 |
| COCCN(Cc1ccccc1)S(=O)(=O)c1cc(C(=O)NC2COC2)ccc1OC [DNDI0003392129] |  | 4 |
| Cc1ccc(NC(=O)c2[nH]c(C)c(C(=O)OC(C)C)c2C)cc1S(=O)(=O)N1CCCCC1 [Compound Z51733284] | 2 |  |
| COc1ccc(Cl)cc1S(=O)(=O)N(CC(=O)N1CCOCC1)Cc1ccccc1 [SCYX0001379806] | 1 |  |
| CCCOc1cc(C)c(Cl)cc1S(=O)(=O)NCc1cccs1 [DNDI0002572626] | 1 |  |
| COc1ccc(S(=O)(=O)N(CC(=O)NC2CC2)Cc2ccccc2)cc1C [DNDI0003363400] | 1 |  |
| NS(=O)(=O)c1cc2c(cc1Cl)NCN(Cc1ccccc1)S2(=O)=O [DNDI0003392143] |  | 1 |
| CNCCOc1ccc(F)cc1S(=O)(=O)N(Cc1ccc(F)cc1)Cc1ccc(F)cc1 [DNDI0003389318] |  | 3 |
| COc1ccc(C#N)cc1S(=O)(=O)N(Cc1ccccc1)Cc1cnc(C(F)(F)F)nc1 [DNDI0003425527] |  | 16 |
| COCCN(Cc1ccc(F)cc1)S(=O)(=O)c1cc(C(=O)N2CCOCC2)ccc1OC [DNDI0003392125] |  | 3 |
| COC(=O)c1c(C)[nH]c(C(=O)Nc2cccc(S(C)(=O)=O)c2)c1C [Compound Z109929482] | 1 |  |
| COCCN(Cc1ccccc1)S(=O)(=O)c1ccccc1OC(F)(F)F [DNDI0003392130] |  | 8 |
| COc1ccc(C(=O)N2CCOCC2)cc1S(=O)(=O)N(Cc1ccc(F)cc1)CC(C)C [DNDI0003389127] |  | 9 |
| COCCOCN1CNc2cc(OC)c(S(=O)(=O)N(Cc3ccccc3)Cc3ccccc3)cc2S1(=O)=O [DNDI0003425511] |  | 98 |
| COc1ccc(S(C)(=O)=O)cc1S(=O)(=O)N(Cc1ccccc1)CC(C)(C)C [DNDI0003425524] |  | 24 |
| COc1ccc(Cl)cc1S(=O)(=O)N(Cc1ccccc1)C(CO)c1ccc(F)cc1 (stereo not shown) [DNDI0003388149] |  | 38 |
| COc1ccc(CN(Cc2ccc(F)cc2)S(=O)(=O)c2cc(F)ccc2OCCN(C)C)cc1 [DNDI0003378485] |  | 2 |
| COc1ccc(C(=O)N2CCOCC2)cc1S(=O)(=O)N(Cc1ccc(C(F)(F)F)nc1)C(C)c1ccc(F)cc1 (stereo not shown) [DNDI0003407905] |  | 27 |
| N#Cc1ccc(O)c(S(=O)(=O)N(Cc2ccc(F)cc2)Cc2ccc(F)cc2)c1 [DNDI0003389125] |  | 1 |
| Fc1cccc(Cl)c1CNc1ccccc1-n1cccn1 [Compound Z739504072] | 1 |  |
| CCOC(=O)c1c(C)[nH]c(C(=O)Nc2cccc(S(=O)(=O)N3CCOCC3)c2)c1C [Compound Z30001211] | 1 |  |
| CCOC(=O)c1c(C)[nH]c(C(=O)Nc2ccc(Cl)c(S(=O)(=O)N3CCCCC3)c2)c1C [Compound Z30461235] | 5 |  |

| Structure (SMILES) | SI (vs PMM) (PMM IC50 vs L. infantum IC50) | SI (vs PMM) [1] |
| --- | --- | --- |
| O=C(c1ccc(OCC2CCCO2)c(S(=O)(=O)NCc2ccccc2)c1)N1CCOCC1 (stereo not shown) [DNDI0003407877] |  | 1 |
| COc1ccc(Cl)cc1S(=O)(=O)N(Cc1ccccc1)CC(N)c1ccc(F)cc1 (stereo not shown) [DNDI0003389932] |  | 5 |
| COc1ccc(C(=O)NCCO)cc1S(=O)(=O)N(Cc1ccc(F)cc1)Cc1ccc(F)cc1 [DNDI0003371176] |  | 25 |
| CN(C)S(=O)(=O)c1cccc(NC(=O)CNc2cccc3c2CCCC3)c1 [Compound Z30985744] | 1 |  |
| O=C(COc1ccc(Cl)cc1S(=O)(=O)NCc1ccccc1)N1CCOCC1 [DNDI0003363401] | 1 |  |
| COc1ccc(C(=O)N2CCN(C)CC2)cc1S(=O)(=O)N(Cc1ccc(F)cc1)Cc1ccc(F)cc1 [DNDI0003371173] |  | 59 |
| CC1Cc2ccccc2N1CC(=O)Nc1ccc(Cl)c(S(=O)(=O)N(C)C)c1 (stereo not shown) [Compound Z30956600] | 1 |  |
| COc1cc(S(=O)(=O)NC(C)c2ccccc2)c(OC)cc1C (stereo not shown) [DNDI0002622495] | 1 |  |
| COc1ccc(OC)c(S(=O)(=O)N(Cc2ccc(F)cc2)C2CCOCC2)c1 [DNDI0003388086] |  | 1 |
| Cc1ccc(NC(=O)CN(CC(C)C)c2cccc(O)c2)cc1S(=O)(=O)N(C)C [Compound Z1317978681] | 2 |  |
| COc1ccc(S(N)(=O)=O)cc1S(=O)(=O)NCc1ccccc1 [DNDI0003407892] |  | 1 |
| COCCOCN(Cc1ccccc1)S(=O)(=O)c1cc(OC)ccc1OC [DNDI0003425514] |  | 10 |
| COc1ccc([S+](C)[O-])cc1S(=O)(=O)N(Cc1ccccc1)Cc1ccccc1 (stereo not shown) [DNDI0003578382] |  | 109 |
| COc1ccc(S(=O)(=O)N(C)C)cc1NC(=O)Cn1c(=O)cnc2ccccc21 [Compound Z19025005] | 1 |  |
| CN(Cc1ccccc1NCC(=O)Nc1cccc(S(=O)(=O)N(C)C)c1)C1CCCCC1 [Compound Z31013342] | 1 |  |
| COc1ccc(OC)c(S(=O)(=O)N2CCCC2c2ccc(F)cc2)c1 (stereo not shown) [DNDI0003363388] | 3 |  |
| O=S(=O)(NCc1ccccc1)c1cc2c(cc1Cl)NCN(Cc1ccccc1)S2(=O)=O [DNDI0003392144] |  | 1 |
| O=[N+]([O-])c1ccc(Cl)cc1S(=O)(=O)N(Cc1ccccc1)Cc1ccc(F)cc1 [DNDI0003389123] |  | 1 |
| O=S1(=O)c2cc(F)ccc2OCC(c2ccc(F)cc2)N1Cc1ccccc1 (stereo not shown) [DNDI0003389122] |  | 2 |
| COc1ccc(CN(Cc2ccc(F)cc2)S(=O)(=O)c2cc(C#N)ccc2OC)cc1 [DNDI0003371172] |  | 22 |
| CCCCNS(=O)(=O)c1cccc(NC(=O)c2ccc(C)c(OC)c2)c1 [Compound Z109591588] | 1 |  |
| CCCCNS(=O)(=O)c1cccc(NC(=O)c2cc3ccccc3[nH]2)c1 [Compound Z88584859] | 2 |  |

Where two headings read alike, the source gives them in different places.
